# Data published in patent US8829067B2, “Polymerizable compositions with initiators containing several Ge atoms” (Ivoclar Vivadent AG, priority 2008, dated 2014).
# Assay: Photopolymerization in resin mixture D3MA:UDMA:bis-GMA=1:1:1
substance,measurement,setting,value
bisacyl diethylgermanium,reactivity compared with camphorquinone/amine,15-fold dilution of the initiator,comparable with camphorquinone/amine
same,curing time compared with campherquinone/amine,D3MA:UDMA:bis-GMA=1:1:1,halved
same,polymerization rate (Rp) compared with camphorquinone in combination with an amine accelerator,same formulation D3MA:UDMA:bis-GMA=1:1:1,almost double
